Series [1] is described as follows: general procedure: Fmoc solid-phase peptide synthesis; TentaGel S Ram (polystyrene resin); HATU with DIPEA. The note with it: whole synthesis, analytical HPLC and MS, scale of the general procedure 1.04 g resin, 0.25 mmol/g.
The nature of series [2]: general procedure: Fmoc solid-phase peptide synthesis; TentaGel S Ram; HATU with DIPEA. The note with it: whole synthesis, scale 1.04 g; 0.25 mmol/g.

As for “H-H-Aib-QGTFTSDYSKYLD-K(Hexadecanoyl-isoGlu)-RRAKDFIEWLLSA-NH2”, the “final purity (method not given)” value in series [1] stood at 95%. The same substance displayed an isolated mass in series [2] of 88 mg.

The record behind these values is US20160347813A1 (Zealand Pharma A/S, priority 2011, published 2016).
